Measured values reported in the supplement of paper PMC10331698.
± gives the standard deviation of the averaged measurements. Most values lie at the level of the controls, where differences are scatter.

Experiments:
Experiment in all cases: level (log10 ratio to DMSO vehicle control); higher = higher biomarker level / cell amount than vehicle control
[1] = compound: C=CC(=O)OCC(F)(F)C(F)(F)C(F)(F)C(F)(F)C(F)(F)C(F)(F)C(F)(F)C(F)F [1H,1H,9H-Perfluorononyl acrylate]; conditions: 2200 nM; in DMSO
Experimental: (§1)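 BioMAP Diversity Plus panel of 12 human primary cell co-culture systems (3C, 4H, LPS, SAg, BT, BF4T, BE3C, CASM3C, HDF3CGF, KF3CT, MyoF, Mphg). Compounds were added 1 h before stimulation and left for 24 h (MyoF 48 h; BT 72 h for soluble read-outs or 6 d for IgG). Biomarkers were read by ELISA, cytotoxicity by SRB, PBMC viability and proliferation by Alamar Blue. Each well value was divided by the mean of 8 DMSO control wells on the same plate and log10 transformed; duplicate blinded samples were tested at 4 concentrations.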

[2] = compound: CCOC(=O)CC(=O)C(F)(F)C(F)(F)F [Ethyl pentafluoropropionyl acetate]; conditions: 2200 nM; in DMSO
Experimental: as §1

[3] = compound: FC(F)(F)C(F)(F)C(F)(F)C(F)(F)C(F)(F)C(F)(F)C(F)(F)C(F)(F)CCS [2-(Perfluorooctyl)ethanthiol]; conditions: in DMSO
Experimental: as §1

Perfluorooctanamidine = compound: N=C(N)C(F)(F)C(F)(F)C(F)(F)C(F)(F)C(F)(F)C(F)(F)C(F)(F)F [Perfluorooctanamidine]; conditions: in DMSO
Experimental: as §1

[4] = compound: O=C(CC(=O)C(F)(F)C(F)(F)C(F)(F)F)c1cccs1 [(Perfluorobutyryl)-2-thenoylmethane]; conditions: 2200 nM; in DMSO
Experimental: as §1

Perfluorodecanoic acid = compound: O=C(O)C(F)(F)C(F)(F)C(F)(F)C(F)(F)C(F)(F)C(F)(F)C(F)(F)C(F)(F)C(F)(F)F [Perfluorodecanoic acid]; conditions: in DMSO
Experimental: as §1

Perfluorononanoic acid = compound: O=C(O)C(F)(F)C(F)(F)C(F)(F)C(F)(F)C(F)(F)C(F)(F)C(F)(F)C(F)(F)F [Perfluorononanoic acid]; conditions: 2200 nM; in DMSO
Experimental: as §1

[5] = compound: O=C(O)C(F)(F)C(F)(F)C(F)(F)C(F)(F)C(F)(F)C(F)(F)C(F)(F)F [Ammonium perfluorooctanoate]; conditions: 2200 nM; in DMSO
Experimental: as §1

Perfluorooctanoic acid = compound: O=C(O)C(F)(F)C(F)(F)C(F)(F)C(F)(F)C(F)(F)C(F)(F)C(F)(F)F [Perfluorooctanoic acid]; conditions: 2200 nM; in DMSO
Experimental: as §1

[6] = compound: O=C(O)C(F)(F)OC(F)(F)C(F)(F)OC(F)(F)C(F)(F)OC(F)(F)C(F)(F)C(F)(F)C(F)(F)F [Perfluoro-3,6,9-trioxatridecanoic acid]; conditions: 2200 nM; in DMSO
Experimental: as §1

[7] = compound: O=C(O)C(F)(F)OC(F)(F)C(F)(F)OC(F)(F)F [Perfluoro-3,6-dioxaheptanoic acid]; conditions: 2200 nM; in DMSO
Experimental: as §1

[8] = compound: O=C(O)CCC(F)(C(F)(F)F)C(F)(F)F [4,4-bis(Trifluoromethyl)-4-fluoropropanoic acid]; conditions: 2200 nM; in DMSO
Experimental: as §1

[9] = compound: OCC(F)(F)C(F)(F)C(F)(F)C(F)(F)C(F)(F)C(F)(F)C(F)(F)C(F)(F)CO [1H,1H,10H,10H-Perfluorodecane-1,10-diol]; conditions: 2200 nM; in DMSO
Experimental: as §1

[10] = compound: OCC(F)(F)OC(F)(F)C(F)(F)OC(F)(F)C(F)(F)OC(F)(F)CO [1H,1H,11H,11H-Perfluorotetraethylene glycol]; conditions: 2200 nM; in DMSO
Experimental: as §1

Test System	level (log10) [1]	level (log10) [2]	level (log10) ([3]; 740 nM)	level (log10) ([3]; 2200 nM)	level (log10) (Perfluorooctanamidine; 2200 nM)	level (log10) (Perfluorooctanamidine; 6700 nM)	level (log10) (Perfluorooctanamidine; 20000 nM)	level (log10) (Perfluorooctanamidine; 60000 nM)	level (log10) [4]	level (log10) (Perfluorodecanoic acid; 2200 nM)	level (log10) (Perfluorodecanoic acid; 6700 nM)	level (log10) (Perfluorodecanoic acid; 20000 nM)	level (log10) (Perfluorononanoic acid)	level (log10) [5]	level (log10) (Perfluorooctanoic acid)	level (log10) [6]	level (log10) [7]	level (log10) [8]	level (log10) [9]	level (log10) [10]
CASM3C:SRB	-0.0005 ± 0.0078	0.0025 ± 0.012	0.0045 ± 0.015	0.0055 ± 0.0064	0.0045 ± 0.012	-0.0015 ± 0.011	-0.0105 ± 0.00071	-0.018	-0.002 ± 0.0085	-0.0045 ± 0.0092	0.0055 ± 0.0064	0.0055 ± 0.0064	0.0045 ± 0.018	-0.004 ± 0.0014	0.0135 ± 0.016	-0.0055 ± 0.00071	-0.002 ± 0.017	0.0075 ± 0.011	0.0035 ± 0.0078	-0.001 ± 0.014
LPS:sPGE2	-0.039 ± 0.057	0.0125 ± 0.005	-0.0205 ± 0.047	0.021 ± 0.024	0.0155 ± 0.0021	-0.019 ± 0.031	-0.078 ± 0.031	-0.06	-0.046 ± 0.014	-0.01 ± 0.016	-0.017 ± 0.025	-0.052 ± 0.0071	-0.007 ± 0.0042	-0.037 ± 0.023	0.0335 ± 0.015	0.018 ± 0.0085	-0.0175 ± 0.019	-0.001 ± 0.017	-0.0055 ± 0.059	0.0235 ± 0.005
HDF3CGF:EGFR	0.0015 ± 0.042	0.0145 ± 0.035	-0.0425 ± 0.056	-0.048 ± 0.0057	-0.003 ± 0.018	-0.017 ± 0.02	0.01 ± 0.011	-0.013	0.0025 ± 0.018	0.0325 ± 0.033	-0.075 ± 0.054	-0.195 ± 0.026	-0.04 ± 0.0014	0.0055 ± 0.018	0.0065 ± 0.033	0.0055 ± 0.054	0.028 ± 0.033	-0.0255 ± 0.086	-0.021 ± 0.0099	0.003 ± 0.035
BF4T:CCL26/Eotaxin-3	-0.038 ± 0.0057	0.021 ± 0.069	-0.0345 ± 0.035	-0.027 ± 0.064	0.0445 ± 0.053	0.0375 ± 0.044	-0.0585 ± 0.026	-0.106	-0.0965 ± 0.0021	-0.028 ± 0.0071	-0.083 ± 0.038	-0.509 ± 0.029	-0.0395 ± 0.0064	0.03 ± 0.023	0.0215 ± 0.063	-0.04 ± 0.035	-0.025 ± 0.023	-0.0245 ± 0.11	-0.0265 ± 0.08	0.0005 ± 0.052
SAg:CD38	-0.006 ± 0.0071	0.002 ± 0.044	-0.0235 ± 0.028	-0.041 ± 0.037	-0.006 ± 0.017	0.009 ± 0.017	0.001 ± 0.013	-0.074	-0.007 ± 0.035	-0.0165 ± 0.012	-0.009 ± 0.0014	-0.017 ± 0.0057	0.019 ± 0.034	-0.022 ± 0.013	0.002 ± 0.017	0.0025 ± 0.022	-0.012 ± 0.031	-0.003 ± 0.028	-0.025	0.0265 ± 0.049
LPS:CD69	-0.0185 ± 0.00071	-0.012 ± 0.031	-0.002 ± 0.03	-0.022 ± 0.024	0.005 ± 0.04	-0.025 ± 0.045	-0.0395 ± 0.04	-0.132	-0.0305 ± 0.039	-0.0205 ± 0.033	-0.03 ± 0.011	-0.048 ± 0.0099	0 ± 0.021	-0.0075 ± 0.03	0.0795 ± 0.074	-0.0125 ± 0.052	-0.0155 ± 0.00071	-0.018 ± 0.05	0.0185 ± 0.021	0.003 ± 0.038
CASM3C:HLA-DR	0.075 ± 0.02	-0.0175 ± 0.035	0.001 ± 0.014	-0.032	0.0205 ± 0.083	-0.0335 ± 0.016	-0.0655 ± 0.011	-0.022	0.0035 ± 0.025	0.0055 ± 0.021	0	0.006 ± 0.014	-0.0445 ± 0.013	0.019 ± 0.0042	0.0025 ± 0.04	0.007 ± 0.0028	0.0015 ± 0.019	-0.0025 ± 0.043	0.004 ± 0.016	-0.016 ± 0.013
lMphg:SRB-Mphg	0.0125 ± 0.05	0.0005 ± 0.0064	0.011 ± 0.05	0.0035 ± 0.026	0.017 ± 0.014	0.0145 ± 0.011	0.009 ± 0.014	0.007	-0.0015 ± 0.035	0.0095 ± 0.019	0.0065 ± 0.00071	-0.005 ± 0.0085	-0.0125 ± 0.049	0.003 ± 0.0042	0.0135 ± 0.026	0.008 ± 0.024	0.0125 ± 0.039	0.0255 ± 0.0021	0.018 ± 0.061	0.0085 ± 0.019
SAg:Proliferation	0.0085 ± 0.013	-0.012 ± 0.061	0.0635 ± 0.011	0.0235 ± 0.021	0.044 ± 0.023	0.0195 ± 0.011	0 ± 0.048	-0.565	-0.089	0.0065 ± 0.029	0.0435 ± 0.019	0.0255 ± 0.032	-0.0205 ± 0.018	0.0195 ± 0.012	0.0365 ± 0.00071	0.046 ± 0.014	-0.0045 ± 0.022	0.05 ± 0.064	-0.0215 ± 0.029	-0.0195 ± 0.081
BF4T:SRB	-0.0025 ± 0.0092	0 ± 0.0028	-0.013 ± 0.0028	-0.0175 ± 0.00071	-0.0035 ± 0.015	-0.009 ± 0.0071	-0.0085 ± 0.0035	-0.004	-0.013 ± 0.0085	0.01 ± 0.011	-0.001 ± 0.0071	-0.256 ± 0.0014	0.004 ± 0.0099	0.0025 ± 0.0078	-0.003 ± 0.0099	0.002 ± 0.0057	-0.006 ± 0.0085	0.0185 ± 0.015	-0.0055 ± 0.0064	0 ± 0.0028
SAg:CD40	-0.0255 ± 0.047	-0.004 ± 0.016	-0.0245 ± 0.05	0.0185 ± 0.0021	-0.021 ± 0.018	-0.0055 ± 0.0021	0.014 ± 0.023	-0.093	-0.0355 ± 0.0021	-0.0015 ± 0.012	-0.0095 ± 0.021	-0.0305 ± 0.012	-0.0685 ± 0.036	0.0005 ± 0.00071	0.003 ± 0.017	-0.0135 ± 0.025	-0.0565 ± 0.035	-0.0555 ± 0.067	-0.0245 ± 0.019	-0.013 ± 0.0085
CASM3C:CD141/Thrombomodulin	0.0575 ± 0.016	-0.051 ± 0.024	-0.029 ± 0.069	-0.0125 ± 0.087	0.017 ± 0.044	-0.008 ± 0.016	-0.0205 ± 0.005	0.043	0.0235 ± 0.066	-0.019 ± 0.03	-0.015 ± 0.031	-0.0125 ± 0.029	0.0035 ± 0.052	0.024 ± 0.047	0.002 ± 0.0042	-0.024 ± 0.045	-0.0155 ± 0.0035	-0.0155 ± 0.11	-0.0295 ± 0.0078	-0.051 ± 0.02

At a glance, part of the list above:
Test System	level (log10) [1]	level (log10) [2]	level (log10) ([3]; 740 nM)	level (log10) ([3]; 2200 nM)	level (log10) (Perfluorooctanamidine; 2200 nM)	level (log10) (Perfluorooctanamidine; 6700 nM)	level (log10) (Perfluorooctanamidine; 20000 nM)	level (log10) (Perfluorooctanamidine; 60000 nM)	level (log10) [4]	level (log10) (Perfluorodecanoic acid; 2200 nM)	level (log10) (Perfluorodecanoic acid; 6700 nM)	level (log10) (Perfluorodecanoic acid; 20000 nM)	level (log10) (Perfluorononanoic acid)	level (log10) [5]	level (log10) (Perfluorooctanoic acid)	level (log10) [6]	level (log10) [7]	level (log10) [8]	level (log10) [9]	level (log10) [10]
CASM3C:HLA-DR	0.075 ± 0.02	-0.0175 ± 0.035	0.001 ± 0.014	-0.032	0.0205 ± 0.083	-0.0335 ± 0.016	-0.0655 ± 0.011	-0.022	0.0035 ± 0.025	0.0055 ± 0.021	0	0.006 ± 0.014	-0.0445 ± 0.013	0.019 ± 0.0042	0.0025 ± 0.04	0.007 ± 0.0028	0.0015 ± 0.019	-0.0025 ± 0.043	0.004 ± 0.016	-0.016 ± 0.013
lMphg:SRB-Mphg	0.0125 ± 0.05	0.0005 ± 0.0064	0.011 ± 0.05	0.0035 ± 0.026	0.017 ± 0.014	0.0145 ± 0.011	0.009 ± 0.014	0.007	-0.0015 ± 0.035	0.0095 ± 0.019	0.0065 ± 0.00071	-0.005 ± 0.0085	-0.0125 ± 0.049	0.003 ± 0.0042	0.0135 ± 0.026	0.008 ± 0.024	0.0125 ± 0.039	0.0255 ± 0.0021	0.018 ± 0.061	0.0085 ± 0.019
SAg:Proliferation	0.0085 ± 0.013	-0.012 ± 0.061	0.0635 ± 0.011	0.0235 ± 0.021	0.044 ± 0.023	0.0195 ± 0.011	0 ± 0.048	-0.565	-0.089	0.0065 ± 0.029	0.0435 ± 0.019	0.0255 ± 0.032	-0.0205 ± 0.018	0.0195 ± 0.012	0.0365 ± 0.00071	0.046 ± 0.014	-0.0045 ± 0.022	0.05 ± 0.064	-0.0215 ± 0.029	-0.0195 ± 0.081
